## Primary screen of a compound library

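Phenotypic screen: M. tuberculosis growth, cholesterol and DPPC medium, 4 days; the read-out is not stated. Tested at 50 µM. Direction is inferred from retests: higher values go with more growth inhibition. Of about 69,000 compounds tested this way, about 370 (0.54%) reached 50% or more in at least one test.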

Values are the deposited “Percent Effect”, in %.
How 0% and 100% were set is not recorded. Most values in the screen are low, and negative values occur.
Compounds were drawn at random from those tested, without regard to their results.
Two or more numbers in one place are separate tests of the same structure; such repeats can differ widely.

| compound | effect |
|---|---|
| `c1cncc(CN2CCC(c3ccnc4nccn34)C2)c1` (stereo unspecified) | -6.619 & -10.35 |
| `Cc1n[nH]c(C2CN(C(=O)c3ccc4c(c3)COC4)CCO2)n1` (stereo unspecified) | -3.536 |
| `CC(O)CN(C(=O)NC1CC1)C(C)C` (stereo unspecified) | -14.97 |
| `CC(Sc1nnnn1C1CCOCC1)C(=O)NC1CCCCC1` (stereo unspecified) | -11.64 |
| `Cc1cnn(C2CCCN(C(=O)c3cccc4c3OCO4)C2)c1` (stereo unspecified) | -4.463 |
| `NC(=O)C(NCc1cccs1)c1ccccc1` (stereo unspecified) | -30.16 |
| `O=C(C1CCOC1)N1CCC2(CCCNC2)CC1` (stereo unspecified) | 5.725 |
| `CCc1nnc2n1CCN(Cc1csc(-c3ncccn3)n1)C2` | -30.2 |
| `Cc1cccnc1NCCNC(=O)C1CCN(C(=O)N(C)C)CC1` | 7.386 |
| `CCN(CC)CCn1cc(NC2CCSCC2)cn1` | 0.2928 |
| `CC(C)=CCCC1(C)C=Cc2c(cc(C)n(CCC(=O)O)c2=O)O1` (stereo unspecified) | -18.98 |
| `[H][C@]12CCC(=O)N(c3cccnc3)[C@@]1([H])CCN2C(=O)c1cccs1` | -15.44 & -19.24 |
| `CCC1=NN2C(=N)/C(=C/c3cccc(Cl)c3)C(=O)N=C2S1` | 12.54 |
| `CC1CCN(C(=O)CCN2Cc3ccccc3C[C@H]2C(N)=O)C1` (stereo partly specified) | -32.73 |
| `Cc1nc2ccccc2n1Cc1cc(C(=O)NC2CCOC2)no1` (stereo unspecified) | -2.113 |
| `Cc1cc(CNC(=O)NC(C)c2ccc(N3CCOCC3)cc2)no1` (stereo unspecified) | -14.61 |
| `[H][C@@]12COC[C@]1(c1nnc(C)o1)CN(Cc1cc(C)on1)C2` | -31.31 |
| `CCc1ncc2c(n1)CN(c1nnc(C)c(C)c1C#N)CC2` | -24.92 |
| `CC(C)N(C)C(=O)c1coc(CN2CCN(c3ccccc3F)CC2)n1` | 11.69 |
| `CO[C@H]1CO[C@@]2(CCCN(S(=O)(=O)c3ccccc3)C2)C1` | -12.46 |
| `Cc1ccc(C(=O)Nc2cc(C(C)C)n[nH]2)cn1` | -9.242 |
| `O=C(NCC1(CO)CC1)NC(c1nccs1)C1CC1` (stereo unspecified) | 16.51 |
| `COc1cc2c(cc1C1CC(=O)NCc3nc(N(C)C)sc31)CCC2` (stereo unspecified) | 3.397 |
| `CCN(CC)CC1CCN(C(=O)CCn2cccn2)CC1` | -11.83 |
| `Cc1ccc(-c2csc3c(=O)[nH]c(N4CCCC(C(N)=O)C4)nc23)cc1` (stereo unspecified) | -17.39 |
| `Cc1nc(CN2CCN(C(=O)c3sccc3C3CC3)CC2)cs1` | 10.58 |
| `CC(=O)NCCc1cc2nc(-c3ccncc3)ccn2n1` | -2.181 & -5.604 |
| `CN1CCCC(Cc2cc(N(C)C)ncn2)C1` (stereo unspecified) | -5.916 |
| `CCOC(=O)N1CCN(C(=O)c2snnc2-c2ccccc2)CC1` | -5.34 |
| `Cc1nc(C)n(C2CCCN(C(=O)c3cccnc3NC(C)C)C2)n1` (stereo unspecified) | 6.544 |
| `O=C(O)C(F)(F)F.O=C(O)C(F)(F)F.[H][C@@]12COC[C@H](C(=O)NCc3ccccn3)[C@]1([H])CN(CC1CC1)C2` | -12.41 & -20.5 |
| `CC(CN1CCCC1=O)NC(=O)Nc1cccnc1-n1cccn1` (stereo unspecified) | -22.45 |
| `Cc1csc(NC(=O)C2CCN(Cc3cccc4c3OCCO4)CC2)n1` | -3.218 |
| `CS(=O)(=O)CCSc1n[nH]c(-c2ccc3c(c2)CCC3)n1` | -20.57 |
| `CSc1cccc(NC(C)C(=O)Nc2nccs2)c1` (stereo unspecified) | -13.48 |
| `O=C(O)C(F)(F)F.[H][C@@]12CCN(c3cccnc3)C[C@]1([H])CN(C(=O)CC1CC1)C2` | 0.8501 & -1.961 |
| `CCn1cc(N2Cc3nc(N(C)C)ncc3C2=O)cn1` | -6.883 |
| `COc1ccc(CN2CCC3(CC(=O)N(c4cccc(F)c4)C3)C2)cc1.O=C(O)C(F)(F)F` (stereo unspecified) | 21.19 & 12.72 |
| `Nc1nc(N2CCCCC2)ncc1C(=O)NCc1ccc(F)c(Cl)c1` | 2.319 |
| `[H][C@]12CC[C@@]3(N=C(CC)N(CC(C)C)C3=O)[C@@]1([H])CN(S(=O)(=O)CC)C2` | 3.335 |
| `O=C(CCN1CCCCO1)NCCSc1cnn[nH]1` | -4.811 |
| `CC1c2ncc(Cn3cccn3)n2CCN1Cc1ccc(F)cc1.O=C(O)C(F)(F)F` (stereo unspecified) | 2.637 |
| `CC(C)OCc1noc(C2CCOC2)n1` (stereo unspecified) | -36.66 |
| `CNc1ncc(C(=O)N2CCC3(CC2)Nc2ccccc2NC3=O)cn1` | -2.048 & -9.308 |
| `Cc1nc(C)n(CC2CN(Cc3cccs3)Cc3nccn3C2)n1.O=C(O)C(F)(F)F` (stereo unspecified) | -9.245 & -8.728 |
| `Cc1c(F)cccc1S(=O)(=O)NCC(C)(C)CC(C)O` (stereo unspecified) | 19.84 |
| `CCCc1noc(CN2CCCC2c2noc(C3CC3)n2)n1` (stereo unspecified) | -33.28 |
| `CCc1cc(N2CC(N3CCCCC3C)C2)n2nccc2n1` (stereo unspecified) | -0.01948 |
| `Cc1ccc(NC(=O)CC2NC(N3CCc4ccccc43)=NC2=O)cc1` (stereo unspecified) | -7.164 |
| `COCCN1CCC12CCN(C(=O)Cc1cccs1)C2.O=C(O)C(F)(F)F` (stereo unspecified) | 18.67 |
| `CCNC(=O)[C@@H]1C[C@H](NC(=O)c2ccc(C)s2)CN1Cc1ccc(C)o1` | -12.03 |
| `OC(COCc1cccs1)CN1CCC(c2ccn[nH]2)CC1` (stereo unspecified) | -4.213 |
| `O=C(COCc1ccccc1)N1CCN(Cc2ccccc2F)C(=O)C1` | -30.91 |
| `CCN(C(=O)CCn1cccn1)C1CC1` | -4.585 |
| `Cc1cc(C)n2c(CCCNS(=O)(=O)c3ccc(F)cc3)nnc2n1` | 15.63 |
| `Cc1cc(C)nc(NCc2nnc3n2CCCCC3)n1` | -7.62 |
| `Cc1cc2cccc(C(=O)N3CCOC(CCN(C)C)C3)c2o1` (stereo unspecified) | 12.93 |
| `[H][C@@]12CN(Cc3ccoc3)C[C@]1([H])OCCN2CC(=O)N(C)C` | 2.454 |
| `O=C(NCc1nn(-c2ccccc2)c2c1CCC2)NCC1COCCO1` (stereo unspecified) | 7.94 |
| `O=C(O)C(F)(F)F.O=S1(=O)NCC2(CCNCC2)COc2ccccc21` | -0.6255 |
| `CC(NC(=O)NCCCc1n[nH]c(N)c1C#N)c1cccs1` (stereo unspecified) | 11.52 |
| `O=C(NCC1(N2CCOCC2)CCSC1)Nc1ccc(F)cc1` (stereo unspecified) | 9.253 |
| `O=C(NCCc1noc(C2CCCC2)n1)c1cn2ccsc2n1` | 11.22 |
| `Cc1ccsc1[C@@H]1CCN(C(=O)Cc2ccc(O)cc2)C[C@H]1O` | -9.568 |
| `Cc1ccccc1CC(=O)NS(=O)(=O)c1cccc2cnccc12` | -5.61 |
| `CCCc1cc(NC2CCc3nc(C(C)C)nn3C2)n2ncnc2n1` (stereo unspecified) | 13.16 |
| `CN(C)C(=O)c1cc(-c2ccncc2)[nH]n1` | 2.53 |
| `Cc1c(C)n(CC(O)CN2CCC(O)CC2)c2c(Cl)cccc12` (stereo unspecified) | -9.371 |
| `OC(CN1CCC(c2ccn[nH]2)CC1)c1cccc(C(F)(F)F)c1` (stereo unspecified) | 4.282 |
| `O=C(C1COCCO1)N1CCN(CC(F)(F)F)c2ccccc21` (stereo unspecified) | 14.8 |
| `OCCCN(CCc1cccc(F)c1)C1CC1` | -6.575 |
| `Cc1nc(C)n(CC2CCCN2CCC(=O)N2CCCCC2)n1` (stereo unspecified) | -11.16 |
| `CCC(=O)N1CCN(C(=O)Cn2cccn2)CC1` | 7.915 |
| `O=C(Nc1ccccc1)NC1CCN(C2CCOC2)CC1` (stereo unspecified) | -4.694 |
| `COc1ccc(NC(=O)N(C)Cc2ccsc2)cn1` | 9.03 |
| `O=C(CN1CCCCC1=O)N1CCC2(CC1)[C@H](O)C[C@@H]2O` | 9.454 |
| `CN(Cc1ccc(F)cc1)CC1(O)CCN(C(=O)c2ccccn2)C1` (stereo unspecified) | 2.008 |
| `Cc1n[nH]c(C)c1CCN(C)C(=O)C(c1cccnc1)N1CCOCC1` (stereo unspecified) | -0.5282 |
| `COCCNC(=O)C1CN(Cc2csc(C)n2)Cc2ccnn2C1.O=C(O)C(F)(F)F` (stereo unspecified) | -26.3 |
| `CC(C)Cn1cc(NC(=O)c2cccc(N(C)C)c2)cn1` | -14.36 |
| `Cc1ncc(CN(C)C(=O)Nc2cccc(N3CCNC3=O)c2)s1` | -5.445 |
| `Cc1c(C)n2c(SCC(=O)N3CCC(C)CC3)nnc2[nH]c1=O` | -3.387 |
| `Cc1nn(C)c2c(NCCCn3cccn3)nc(C3CC3)nc12` | 0.2179 |
| `O=C(COCC1CC1)Nc1cc(-c2ccc(Br)s2)n[nH]1` | -3.818 |
| `[H][C@@]12CS(=O)(=O)C[C@]1([H])N(Cc1ccc(C)cc1)CCN2Cc1ccncc1` | -42.47 |
| `Cc1nc(C2CCCN2CC(=O)NCCc2ccc(Cl)cc2)no1` (stereo unspecified) | 2.702 |
| `c1coc(-c2noc(CN3CCCC(Cn4cncn4)C3)n2)c1` (stereo unspecified) | 16.37 |
| `Cn1cccc1CN1CCC2(CCCN(C(=O)Cc3cccnc3)C2)C1` (stereo unspecified) | 26.37 |
| `Cc1nc(C2CCCN2C(=O)CC2CCCC2)ncc1C(N)=O` (stereo unspecified) | -7.998 |
| `CCC(CNC(C)=O)(OC)c1ccccc1` (stereo unspecified) | 11.16 |
| `CCc1ccc(C(=O)O)cc1S(=O)(=O)Nc1ccc(F)c(C#N)c1` | 11.58 |
| `CCCn1ncc2c(C(=O)Nc3n[nH]c(SC)n3)cc(C3CC3)nc21` | -10.02 |
| `[H][C@@]12CCN(Cc3ccoc3)C[C@@]1([H])O[C@@H](c1ccnc(C(C)C)n1)C2` | 13.64 |

The first 6 entries again:

* c1cncc(CN2CCC(c3ccnc4nccn34)C2)c1 (stereo unspecified) : -6.619% & -10.35%
* Cc1n[nH]c(C2CN(C(=O)c3ccc4c(c3)COC4)CCO2)n1 (stereo unspecified) : -3.536%
* CC(O)CN(C(=O)NC1CC1)C(C)C (stereo unspecified) : -14.97%
* CC(Sc1nnnn1C1CCOCC1)C(=O)NC1CCCCC1 (stereo unspecified) : -11.64%
* Cc1cnn(C2CCCN(C(=O)c3cccc4c3OCO4)C2)c1 (stereo unspecified) : -4.463%
* NC(=O)C(NCc1cccs1)c1ccccc1 (stereo unspecified) : -30.16%

Source: ChEMBL document CHEMBL3988442, “University of Dundee, Small-Polar-MMV Screening Library” (2021).